At least one compound was matched to its structure with a doubt left.
Tested on: C. elegans nematodes at the L1 stage
Assay: Nematicide efficacy of CED-4 peptides, 96-well incubation of C. elegans L1, viability by probe touch
Type: in vivo, Caenorhabditis elegans
Details: three days, about 37° C.
Description: (§1) Assays were performed using 96-well plates. C. elegans nematodes at the L1 stage (refer to FIG. 1) were incubated in each of the 96 wells for three days at about 37° C. at about 0.8 mg/ml peptide concentration for each tested CED-4 peptide. Each of the selected CED-4 peptides were diluted in distilled water to 0.8 mg/ml peptide concentration. Nematodes—numbering between two nematodes and four nematodes—averaging about three nematodes were incubated in 100 μl of CED-4 peptide solution at about 0.8 mg/ml concentration in each well. After a three-day incubation period, the exposed C. elegans nematodes were checked for viability under a dissecting microscope.
The percentage of dead C. elegans from all of the successful experiments is also referred to as the “mortality rate.”
(§2) Each separate well containing nematodes was considered an independent trial experiment. A well in which all of the incubated nematodes were either clearly alive or clearly dead at the end of the incubation period was recorded as one successful experiment. A well in which some or all of the incubated nematodes could not clearly be determined as alive or dead at the end of the incubation period was recorded as one unsuccessful experiment. At a concentration of about 0.8 mg/ml, nine trial experiments were carried out for each of the twelve designed CED-4 peptides.
as §1, with “0.4” for “0.8”
as §2, with “0.4” for “0.8”, “eight” for “nine”

| Substance | Percentage % Dead (mortality rate) (0.4 mg/ml) | Percentage % Dead (mortality rate) (0.8 mg/ml) |
| --- | --- | --- |
| H-TCYIREYHVDRVI-OH [Peptide 4] | 35.71% | 50% |
| H-FPKFMQLHQKFY-OH [Peptide 12] | 66.7% | 100% |
